Measured values: patent US20210163580A1 (NATIONAL HEALTH RESEARCH INSTITUTES, published 2021)
No constants are given. Whether binding was seen depends on the method and setting. Some entries that bind do so weakly or less than the wild type. For some assays here: Sequences can lack the tags named with a protein.

How the values were obtained:
[1] = molecular target: T1, RSPO3(22-115)-his-Fc (Homo sapiens) (UniProt Q9BXY4); assay: ELISA: fragment coated on the plate, biotinylated hB1, streptavidin-HRP, OD 450 [A), right graph]
T1 sequence (fusion chain, looked up): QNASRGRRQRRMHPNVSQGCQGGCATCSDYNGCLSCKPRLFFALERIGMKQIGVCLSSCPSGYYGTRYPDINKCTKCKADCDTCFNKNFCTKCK

[2] = molecular target: T2, RSPO3(22-86)-his-Fc (Homo sapiens) (UniProt Q9BXY4); assay: as above
T2 sequence (fusion chain, looked up): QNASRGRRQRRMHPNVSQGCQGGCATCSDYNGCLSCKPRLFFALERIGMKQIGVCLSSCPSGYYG

[3] = molecular target: T3, RSPO3 22-144 (Homo sapiens) (UniProt Q9BXY4); assay: ELISA: fragment coated on the plate, biotinylated hB1, streptavidin-HRP, OD 450 [A), middle graph]
T3 sequence (single chain, looked up): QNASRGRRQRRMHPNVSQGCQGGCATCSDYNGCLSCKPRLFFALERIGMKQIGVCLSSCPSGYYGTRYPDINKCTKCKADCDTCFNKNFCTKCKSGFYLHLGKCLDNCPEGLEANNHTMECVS

[4] = molecular target: T4, RSPO3 22-202 (Homo sapiens) (UniProt Q9BXY4); assay: as above
T4 sequence (single chain, looked up): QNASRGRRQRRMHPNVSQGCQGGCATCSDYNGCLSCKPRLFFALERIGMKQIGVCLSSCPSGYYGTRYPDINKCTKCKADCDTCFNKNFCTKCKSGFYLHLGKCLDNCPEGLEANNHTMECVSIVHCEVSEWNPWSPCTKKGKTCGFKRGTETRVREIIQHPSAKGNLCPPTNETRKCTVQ

[5] = molecular target: T5, RSPO3(33-210)-Fc (Homo sapiens) (UniProt Q9BXY4); assay: ELISA: fragment coated on the plate, biotinylated hB1, streptavidin-HRP, OD 450 [A), left graph]
T5 sequence (fusion chain, looked up): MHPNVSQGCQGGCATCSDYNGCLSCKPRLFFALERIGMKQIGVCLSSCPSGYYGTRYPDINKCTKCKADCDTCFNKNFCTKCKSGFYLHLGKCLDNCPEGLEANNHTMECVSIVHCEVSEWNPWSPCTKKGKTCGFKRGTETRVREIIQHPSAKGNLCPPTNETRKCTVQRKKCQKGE

Measured: binding

B1: humanized anti-RSPO3 antibody hB1 (antibody, V domains shown)
VH: QIQLQESGPGLVKPSESLSLTCSVTGYSITSGYYWNWIRQFPGNGLEWMGYISYDGTNNYNPSLKDRISITRDTSKNQFFLKLNSVTAADTATYYCSVLLIQYFNIWGKGTTVTVSS
VL: DIQMTQSPSSLSASVGERVTITCRTSESVNNFLAWFHQKPGKSPKLLVYHAKTLADGVSSRFSGSGSGTQYSLKINSLQPEDFGNYYCQHFWSIPWTFGGGTKLEIKR
notes: Humanized from murine B1
binds: all assays above
